Data from the supplement of paper PMC10849652.
The list shows a part of the results.

Protein sequences, listed by entry. Tags and fused reporters are not part of them. Lines headed by an entry give the natural chain unless they say otherwise; changes in a name come on top.
UniProt Q08945, whole entry, looked up: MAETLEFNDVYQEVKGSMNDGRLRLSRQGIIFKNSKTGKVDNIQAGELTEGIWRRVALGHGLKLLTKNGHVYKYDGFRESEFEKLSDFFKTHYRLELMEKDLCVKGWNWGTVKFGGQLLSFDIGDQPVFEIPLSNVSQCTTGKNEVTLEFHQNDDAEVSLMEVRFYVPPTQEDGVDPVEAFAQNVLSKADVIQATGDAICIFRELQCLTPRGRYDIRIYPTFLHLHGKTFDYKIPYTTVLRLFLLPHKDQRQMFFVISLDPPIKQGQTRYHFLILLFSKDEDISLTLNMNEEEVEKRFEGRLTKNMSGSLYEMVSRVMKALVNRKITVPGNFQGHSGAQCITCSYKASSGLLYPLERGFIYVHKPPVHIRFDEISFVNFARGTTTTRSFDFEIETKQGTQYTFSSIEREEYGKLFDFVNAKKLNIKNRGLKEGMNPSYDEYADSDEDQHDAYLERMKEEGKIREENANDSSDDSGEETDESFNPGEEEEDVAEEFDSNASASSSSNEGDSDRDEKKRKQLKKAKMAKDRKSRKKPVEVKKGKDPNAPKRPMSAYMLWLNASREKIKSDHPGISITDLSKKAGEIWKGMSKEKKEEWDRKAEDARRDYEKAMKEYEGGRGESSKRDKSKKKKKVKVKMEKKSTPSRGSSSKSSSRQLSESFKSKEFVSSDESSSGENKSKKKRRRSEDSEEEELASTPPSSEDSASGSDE
UniProt Q8TCT7: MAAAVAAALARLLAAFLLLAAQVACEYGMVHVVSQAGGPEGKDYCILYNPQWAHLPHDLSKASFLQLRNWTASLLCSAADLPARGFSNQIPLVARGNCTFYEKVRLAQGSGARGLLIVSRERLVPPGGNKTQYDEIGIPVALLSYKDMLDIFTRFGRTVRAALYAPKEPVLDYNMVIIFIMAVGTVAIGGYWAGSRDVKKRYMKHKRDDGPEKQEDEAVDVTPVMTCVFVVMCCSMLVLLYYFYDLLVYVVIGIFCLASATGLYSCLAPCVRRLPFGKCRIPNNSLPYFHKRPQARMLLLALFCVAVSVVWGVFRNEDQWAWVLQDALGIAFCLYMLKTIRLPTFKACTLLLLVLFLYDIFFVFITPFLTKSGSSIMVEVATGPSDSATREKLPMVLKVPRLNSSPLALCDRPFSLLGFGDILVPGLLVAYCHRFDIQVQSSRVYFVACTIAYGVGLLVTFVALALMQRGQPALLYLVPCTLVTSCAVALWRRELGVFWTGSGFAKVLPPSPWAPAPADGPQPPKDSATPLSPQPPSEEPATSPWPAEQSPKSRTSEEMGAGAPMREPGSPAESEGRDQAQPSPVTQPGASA
UniProt Q9UBP0: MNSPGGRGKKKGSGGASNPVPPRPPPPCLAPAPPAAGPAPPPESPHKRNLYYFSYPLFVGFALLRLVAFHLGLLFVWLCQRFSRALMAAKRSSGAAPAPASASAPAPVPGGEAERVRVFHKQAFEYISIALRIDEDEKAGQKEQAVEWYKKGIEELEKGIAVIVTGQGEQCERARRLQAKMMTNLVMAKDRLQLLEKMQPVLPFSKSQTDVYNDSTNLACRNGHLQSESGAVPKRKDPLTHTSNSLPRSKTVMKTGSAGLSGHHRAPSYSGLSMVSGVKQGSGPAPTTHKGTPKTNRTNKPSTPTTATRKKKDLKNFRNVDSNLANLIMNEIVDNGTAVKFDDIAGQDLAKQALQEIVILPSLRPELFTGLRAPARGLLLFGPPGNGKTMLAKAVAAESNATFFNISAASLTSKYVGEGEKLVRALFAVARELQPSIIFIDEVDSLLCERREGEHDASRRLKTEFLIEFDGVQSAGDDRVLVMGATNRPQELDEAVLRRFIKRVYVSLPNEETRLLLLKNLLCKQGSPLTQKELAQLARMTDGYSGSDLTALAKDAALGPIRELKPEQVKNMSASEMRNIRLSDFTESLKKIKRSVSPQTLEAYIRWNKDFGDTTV
UniProt Q9NYA1, whole entry, looked up: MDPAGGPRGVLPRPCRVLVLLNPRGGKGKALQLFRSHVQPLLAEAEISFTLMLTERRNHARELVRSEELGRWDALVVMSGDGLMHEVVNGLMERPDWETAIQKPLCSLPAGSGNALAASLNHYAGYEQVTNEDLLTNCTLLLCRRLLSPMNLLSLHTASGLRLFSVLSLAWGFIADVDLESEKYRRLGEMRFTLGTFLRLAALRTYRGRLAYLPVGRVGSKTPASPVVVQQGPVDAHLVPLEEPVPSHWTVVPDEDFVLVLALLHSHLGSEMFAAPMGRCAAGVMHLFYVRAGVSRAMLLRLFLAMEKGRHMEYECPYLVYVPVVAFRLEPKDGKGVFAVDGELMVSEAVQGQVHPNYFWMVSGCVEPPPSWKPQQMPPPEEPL
UniProt Q96SB4, whole entry, looked up: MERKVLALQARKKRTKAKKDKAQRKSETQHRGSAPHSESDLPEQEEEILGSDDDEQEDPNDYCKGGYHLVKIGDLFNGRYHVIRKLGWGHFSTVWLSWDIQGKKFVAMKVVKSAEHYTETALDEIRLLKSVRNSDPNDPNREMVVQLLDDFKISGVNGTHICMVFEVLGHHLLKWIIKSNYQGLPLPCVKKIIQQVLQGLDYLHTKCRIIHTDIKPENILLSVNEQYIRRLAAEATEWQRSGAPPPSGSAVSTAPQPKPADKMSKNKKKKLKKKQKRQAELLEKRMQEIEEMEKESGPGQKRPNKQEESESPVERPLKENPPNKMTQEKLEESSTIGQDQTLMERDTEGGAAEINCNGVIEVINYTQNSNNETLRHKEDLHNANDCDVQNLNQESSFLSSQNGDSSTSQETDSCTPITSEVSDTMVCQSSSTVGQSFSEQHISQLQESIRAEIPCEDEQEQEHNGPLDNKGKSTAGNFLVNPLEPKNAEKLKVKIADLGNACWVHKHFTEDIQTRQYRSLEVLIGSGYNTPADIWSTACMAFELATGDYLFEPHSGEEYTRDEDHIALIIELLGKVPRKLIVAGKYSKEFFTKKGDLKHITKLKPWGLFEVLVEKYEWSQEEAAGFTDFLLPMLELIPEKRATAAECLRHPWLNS
UniProt Q01082, whole entry, looked up: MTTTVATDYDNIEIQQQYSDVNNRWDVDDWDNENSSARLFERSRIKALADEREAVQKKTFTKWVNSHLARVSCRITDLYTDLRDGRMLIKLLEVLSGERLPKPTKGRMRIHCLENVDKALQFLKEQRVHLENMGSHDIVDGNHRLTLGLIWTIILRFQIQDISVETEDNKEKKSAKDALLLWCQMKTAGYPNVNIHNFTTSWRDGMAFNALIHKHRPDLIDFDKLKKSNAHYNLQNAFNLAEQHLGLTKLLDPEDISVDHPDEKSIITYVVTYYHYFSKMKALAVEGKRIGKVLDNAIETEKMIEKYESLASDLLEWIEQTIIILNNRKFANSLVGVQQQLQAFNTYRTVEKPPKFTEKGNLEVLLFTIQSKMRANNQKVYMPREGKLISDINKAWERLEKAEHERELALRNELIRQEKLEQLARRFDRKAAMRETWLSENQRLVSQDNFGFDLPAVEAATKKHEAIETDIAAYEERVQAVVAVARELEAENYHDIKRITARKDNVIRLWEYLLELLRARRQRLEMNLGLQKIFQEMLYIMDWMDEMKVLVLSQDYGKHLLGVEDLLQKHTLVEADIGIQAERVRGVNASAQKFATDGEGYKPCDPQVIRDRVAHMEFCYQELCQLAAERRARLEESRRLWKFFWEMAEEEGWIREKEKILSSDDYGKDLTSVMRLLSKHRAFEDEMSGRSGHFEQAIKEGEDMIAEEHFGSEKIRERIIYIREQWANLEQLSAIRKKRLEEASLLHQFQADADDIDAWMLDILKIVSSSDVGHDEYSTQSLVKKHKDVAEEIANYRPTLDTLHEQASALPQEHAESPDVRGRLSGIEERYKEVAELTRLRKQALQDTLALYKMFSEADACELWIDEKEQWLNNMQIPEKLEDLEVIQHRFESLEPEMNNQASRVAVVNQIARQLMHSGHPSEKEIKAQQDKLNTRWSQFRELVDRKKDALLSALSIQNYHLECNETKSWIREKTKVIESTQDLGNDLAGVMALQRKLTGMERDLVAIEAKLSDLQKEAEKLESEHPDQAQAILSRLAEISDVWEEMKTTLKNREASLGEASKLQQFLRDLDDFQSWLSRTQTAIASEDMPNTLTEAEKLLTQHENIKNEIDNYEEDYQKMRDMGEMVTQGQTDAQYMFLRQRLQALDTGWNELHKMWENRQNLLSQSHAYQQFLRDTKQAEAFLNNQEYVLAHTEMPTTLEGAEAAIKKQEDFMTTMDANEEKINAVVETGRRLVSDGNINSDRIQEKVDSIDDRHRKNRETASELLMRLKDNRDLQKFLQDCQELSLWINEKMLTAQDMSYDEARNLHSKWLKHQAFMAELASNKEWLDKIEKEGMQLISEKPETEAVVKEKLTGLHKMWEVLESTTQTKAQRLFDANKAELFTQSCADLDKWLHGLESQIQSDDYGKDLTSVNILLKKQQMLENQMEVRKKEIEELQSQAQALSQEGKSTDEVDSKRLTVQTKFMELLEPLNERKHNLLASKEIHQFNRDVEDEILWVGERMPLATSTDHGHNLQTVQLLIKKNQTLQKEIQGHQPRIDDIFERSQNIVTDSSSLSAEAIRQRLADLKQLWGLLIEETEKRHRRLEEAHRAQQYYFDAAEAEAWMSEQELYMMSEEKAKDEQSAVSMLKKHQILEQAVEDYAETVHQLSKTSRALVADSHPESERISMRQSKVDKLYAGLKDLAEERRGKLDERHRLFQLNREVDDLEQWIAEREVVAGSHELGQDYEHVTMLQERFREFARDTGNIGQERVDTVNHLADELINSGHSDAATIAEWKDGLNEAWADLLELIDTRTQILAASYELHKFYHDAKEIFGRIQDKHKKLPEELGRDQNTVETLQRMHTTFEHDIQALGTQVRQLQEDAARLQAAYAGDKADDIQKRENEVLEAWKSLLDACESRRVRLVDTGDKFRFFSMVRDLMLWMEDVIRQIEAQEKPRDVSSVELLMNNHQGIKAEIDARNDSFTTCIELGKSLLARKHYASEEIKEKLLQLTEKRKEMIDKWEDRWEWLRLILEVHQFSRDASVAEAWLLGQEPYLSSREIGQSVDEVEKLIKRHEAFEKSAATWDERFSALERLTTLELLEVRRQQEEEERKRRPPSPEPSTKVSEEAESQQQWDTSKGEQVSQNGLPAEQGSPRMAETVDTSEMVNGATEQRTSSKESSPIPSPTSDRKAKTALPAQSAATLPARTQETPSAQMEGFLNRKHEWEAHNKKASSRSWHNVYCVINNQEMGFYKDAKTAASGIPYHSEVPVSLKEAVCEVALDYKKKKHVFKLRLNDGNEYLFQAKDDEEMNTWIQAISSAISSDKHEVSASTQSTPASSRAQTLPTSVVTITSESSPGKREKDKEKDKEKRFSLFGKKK
UniProt Q16629: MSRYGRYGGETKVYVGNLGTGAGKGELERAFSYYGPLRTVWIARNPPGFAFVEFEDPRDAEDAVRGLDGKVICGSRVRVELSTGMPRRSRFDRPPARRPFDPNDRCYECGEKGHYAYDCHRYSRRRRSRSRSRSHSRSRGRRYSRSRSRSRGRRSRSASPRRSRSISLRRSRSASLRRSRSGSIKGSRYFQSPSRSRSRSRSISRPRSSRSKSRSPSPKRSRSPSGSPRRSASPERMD
UniProt Q16842: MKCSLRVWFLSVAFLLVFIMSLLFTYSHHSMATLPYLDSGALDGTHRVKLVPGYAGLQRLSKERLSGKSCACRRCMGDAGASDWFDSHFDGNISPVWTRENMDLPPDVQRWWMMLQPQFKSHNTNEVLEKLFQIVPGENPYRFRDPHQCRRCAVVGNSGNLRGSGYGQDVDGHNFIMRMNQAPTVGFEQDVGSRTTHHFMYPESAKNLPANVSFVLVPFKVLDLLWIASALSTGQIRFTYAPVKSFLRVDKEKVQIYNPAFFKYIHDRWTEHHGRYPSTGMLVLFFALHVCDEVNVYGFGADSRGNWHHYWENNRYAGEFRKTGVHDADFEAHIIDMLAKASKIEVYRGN
UniProt Q13243: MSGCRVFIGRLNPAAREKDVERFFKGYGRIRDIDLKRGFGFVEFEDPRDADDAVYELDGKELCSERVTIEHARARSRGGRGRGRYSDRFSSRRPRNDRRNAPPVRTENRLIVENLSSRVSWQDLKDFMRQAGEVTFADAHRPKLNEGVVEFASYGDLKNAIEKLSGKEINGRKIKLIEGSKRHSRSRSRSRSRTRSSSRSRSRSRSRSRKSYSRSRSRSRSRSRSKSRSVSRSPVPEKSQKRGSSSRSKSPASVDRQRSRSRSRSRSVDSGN
UniProt Q16385, whole entry, looked up: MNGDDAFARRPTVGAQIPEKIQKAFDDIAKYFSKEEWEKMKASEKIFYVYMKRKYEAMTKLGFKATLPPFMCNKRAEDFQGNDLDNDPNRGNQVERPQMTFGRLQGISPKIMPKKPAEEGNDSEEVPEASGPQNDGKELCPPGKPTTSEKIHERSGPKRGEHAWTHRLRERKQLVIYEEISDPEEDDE
UniProt Q8WW59: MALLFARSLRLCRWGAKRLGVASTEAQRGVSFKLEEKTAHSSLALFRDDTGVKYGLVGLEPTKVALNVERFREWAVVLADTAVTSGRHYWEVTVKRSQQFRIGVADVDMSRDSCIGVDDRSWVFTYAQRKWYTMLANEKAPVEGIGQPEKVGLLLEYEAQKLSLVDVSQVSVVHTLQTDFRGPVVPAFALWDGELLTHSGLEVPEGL

The targets below were run with C1=CC=C(C=C1)[C@H](COC2=CC3=C(C=C2)NC(=O)N3)NC(=O)C4=CC=CN(C4=O)CC5=CC(=C(C=C5)F)F (assay: log2 fold change, soluble protein after heating vs DMSO (PISA); higher = thermal stabilisation; K562 cells, 10 uM, 30 min; active = over 0.2 and 3.5 SD of the protein, either way, in both replicates (recomputed)).
Procedure, shortened: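 K562 cells at 2×10^6 cells/mL were treated for 30 min with 10 μM compound, and aliquots were heated for 3 min over 48°C-58°C before pooling. Extraction used PBS with 0.5% NP-40 at 4°C, and soluble protein was the supernatant after 21,000xg for 90 min, measured by TMTpro 16plex LC-MS/MS with channel sums equalised. Thermal stability values, relative to control samples and from duplicates, are log2 fold changes.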
With SPATA33 isoform 2 (UniProt Q96N06) the log2 fold change was inactive: 0.134. SRC isoform 2 (UniProt P12931) was tested, and the log2 fold change was inactive: 0.016. SPC24 (UniProt Q8NBT2) was tested, and the log2 fold change was inactive: -0.011. With SPICE1 (UniProt Q8N0Z3) the log2 fold change was inactive: 0.096. SPG7 (UniProt Q9UQ90) was tested, and the log2 fold change was inactive: 0.026. For SSRP1 (UniProt Q08945), the log2 fold change was inactive: -0.027. In the case of STK25 (UniProt O00506), the log2 fold change is reported as inactive: -0.022. For SPART (UniProt Q8N0X7), the log2 fold change was inactive: -0.028. With SRCAP (UniProt Q6ZRS2) the log2 fold change was inactive: 0.074. SPPL2B (UniProt Q8TCT7) was tested, and the log2 fold change was inactive: 0.039. ST6GAL1 (UniProt P15907) was tested, and the log2 fold change was inactive: 0.017. STIM1 (UniProt Q13586) was tested, and the log2 fold change was inactive: -0.051. In the case of SQSTM1 (UniProt Q13501), the log2 fold change is reported as inactive: 0. SPTAN1 isoform 2 (UniProt Q13813) was tested, and the log2 fold change was inactive: 0. In the case of SPAST (UniProt Q9UBP0), the log2 fold change is reported as inactive: -0.057. In the case of SPHK1 isoform 2 (UniProt Q9NYA1), the log2 fold change is reported as inactive: -0.076. For SRPK1 (UniProt Q96SB4), the log2 fold change was inactive: 0.045. In the case of SPECC1 (UniProt Q5M775), the log2 fold change is reported as inactive: -0.017. For SPTBN1 (UniProt Q01082), the log2 fold change was inactive: -0.002. For SRSF7 (UniProt Q16629), the log2 fold change was inactive: 0.136. STIP1 isoform 2 (UniProt P31948) was tested, and the log2 fold change was inactive: -0.005. In the case of SRD5A3 (UniProt Q9H8P0), the log2 fold change is reported as inactive: -0.056. With SREBF1 isoform 4 (UniProt P36956) the log2 fold change was inactive: 0.026. With SRPK2 isoform 2 (UniProt P78362) the log2 fold change was inactive: 0.05. STAT2 (UniProt P52630) was tested, and the log2 fold change was inactive: 0.161. In the case of ST3GAL2 (UniProt Q16842), the log2 fold change is reported as inactive: 0.083. For SRP54 (UniProt P61011), the log2 fold change was inactive: -0.029. For STK17B (UniProt O94768), the log2 fold change was inactive: 0.043. For SRSF5 (UniProt Q13243), the log2 fold change was inactive: 0.091. With SRA1 (UniProt Q9HD15) the log2 fold change was inactive: -0.023. SSX2 (UniProt Q16385) was tested, and the log2 fold change was inactive: 0.008. SPRYD4 (UniProt Q8WW59) was tested, and the log2 fold change was inactive: -0.023. In the case of SPCS3 (UniProt P61009), the log2 fold change is reported as inactive: -0.032. STAM2 (UniProt O75886) was tested, and the log2 fold change was inactive: -0.015. With STK11IP (UniProt Q8N1F8) the log2 fold change was inactive: 0.035. In the case of SRP68 (UniProt Q9UHB9), the log2 fold change is reported as inactive: -0.041.
